Results on 40 targets are retold here after the supplement of paper PMC12067093, “Discovery and optimisation of a covalent ligand for TRIM25 and its application to targeted protein ubiquitination” (Chemical Science, 2025).

Chains of the proteins cited; added tags and fusions are not shown. Lines headed by an entry give the natural chain unless they say otherwise; changes in a name come on top.
UniProt P23528, whole entry, looked up: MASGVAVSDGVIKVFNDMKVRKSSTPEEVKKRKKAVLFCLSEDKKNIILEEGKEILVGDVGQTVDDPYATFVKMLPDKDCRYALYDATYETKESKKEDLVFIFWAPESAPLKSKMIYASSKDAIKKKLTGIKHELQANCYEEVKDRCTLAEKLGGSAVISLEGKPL
UniProt Q14008: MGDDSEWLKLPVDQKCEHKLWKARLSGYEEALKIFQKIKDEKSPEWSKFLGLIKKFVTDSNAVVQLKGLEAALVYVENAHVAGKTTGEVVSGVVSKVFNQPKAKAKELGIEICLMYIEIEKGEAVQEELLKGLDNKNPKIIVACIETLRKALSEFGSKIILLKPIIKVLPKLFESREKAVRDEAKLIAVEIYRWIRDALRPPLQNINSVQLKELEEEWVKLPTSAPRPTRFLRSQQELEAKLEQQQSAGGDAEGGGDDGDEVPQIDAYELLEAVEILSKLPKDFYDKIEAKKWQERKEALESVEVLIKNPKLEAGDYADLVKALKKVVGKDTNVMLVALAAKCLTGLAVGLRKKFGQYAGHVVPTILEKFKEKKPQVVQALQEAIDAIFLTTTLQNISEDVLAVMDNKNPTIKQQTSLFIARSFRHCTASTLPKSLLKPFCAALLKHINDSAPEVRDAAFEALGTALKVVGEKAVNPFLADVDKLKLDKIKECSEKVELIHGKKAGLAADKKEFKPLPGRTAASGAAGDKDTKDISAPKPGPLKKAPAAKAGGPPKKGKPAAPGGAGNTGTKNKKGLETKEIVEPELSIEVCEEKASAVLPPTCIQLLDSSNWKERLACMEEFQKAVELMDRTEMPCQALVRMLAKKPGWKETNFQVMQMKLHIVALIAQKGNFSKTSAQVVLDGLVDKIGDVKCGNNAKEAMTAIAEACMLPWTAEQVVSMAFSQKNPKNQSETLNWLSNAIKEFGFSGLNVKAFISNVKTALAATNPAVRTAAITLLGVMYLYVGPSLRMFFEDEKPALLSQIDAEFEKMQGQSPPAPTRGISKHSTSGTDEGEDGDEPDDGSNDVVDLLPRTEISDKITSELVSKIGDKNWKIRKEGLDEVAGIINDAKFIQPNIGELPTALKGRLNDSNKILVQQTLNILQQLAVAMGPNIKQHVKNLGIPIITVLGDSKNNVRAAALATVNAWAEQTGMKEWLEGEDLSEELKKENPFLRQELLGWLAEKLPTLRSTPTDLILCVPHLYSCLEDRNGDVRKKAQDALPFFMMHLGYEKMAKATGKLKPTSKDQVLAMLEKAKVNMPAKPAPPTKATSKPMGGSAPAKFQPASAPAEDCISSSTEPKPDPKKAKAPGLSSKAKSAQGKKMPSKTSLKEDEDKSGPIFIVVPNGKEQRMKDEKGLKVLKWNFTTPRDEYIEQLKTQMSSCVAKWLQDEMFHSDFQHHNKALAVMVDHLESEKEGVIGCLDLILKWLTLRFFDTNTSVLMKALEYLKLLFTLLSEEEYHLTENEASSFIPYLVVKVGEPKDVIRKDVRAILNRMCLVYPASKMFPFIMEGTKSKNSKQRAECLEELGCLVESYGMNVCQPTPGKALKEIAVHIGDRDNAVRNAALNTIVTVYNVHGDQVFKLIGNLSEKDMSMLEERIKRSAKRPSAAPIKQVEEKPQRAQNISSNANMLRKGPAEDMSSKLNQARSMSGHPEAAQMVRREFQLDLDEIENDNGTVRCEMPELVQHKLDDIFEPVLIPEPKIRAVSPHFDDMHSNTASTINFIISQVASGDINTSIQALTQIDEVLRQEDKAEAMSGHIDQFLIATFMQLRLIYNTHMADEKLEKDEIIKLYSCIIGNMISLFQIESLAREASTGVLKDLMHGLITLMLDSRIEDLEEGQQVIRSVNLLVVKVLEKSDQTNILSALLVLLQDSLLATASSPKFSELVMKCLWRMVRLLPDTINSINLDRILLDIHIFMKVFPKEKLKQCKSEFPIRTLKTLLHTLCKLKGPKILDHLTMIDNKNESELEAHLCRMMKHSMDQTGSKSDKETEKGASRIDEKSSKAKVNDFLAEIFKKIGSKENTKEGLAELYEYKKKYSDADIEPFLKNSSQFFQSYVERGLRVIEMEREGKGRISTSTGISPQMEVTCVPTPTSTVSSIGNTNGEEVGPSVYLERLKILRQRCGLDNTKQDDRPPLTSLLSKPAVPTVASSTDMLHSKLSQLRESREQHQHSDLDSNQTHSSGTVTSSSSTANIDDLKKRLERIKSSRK
UniProt Q00610: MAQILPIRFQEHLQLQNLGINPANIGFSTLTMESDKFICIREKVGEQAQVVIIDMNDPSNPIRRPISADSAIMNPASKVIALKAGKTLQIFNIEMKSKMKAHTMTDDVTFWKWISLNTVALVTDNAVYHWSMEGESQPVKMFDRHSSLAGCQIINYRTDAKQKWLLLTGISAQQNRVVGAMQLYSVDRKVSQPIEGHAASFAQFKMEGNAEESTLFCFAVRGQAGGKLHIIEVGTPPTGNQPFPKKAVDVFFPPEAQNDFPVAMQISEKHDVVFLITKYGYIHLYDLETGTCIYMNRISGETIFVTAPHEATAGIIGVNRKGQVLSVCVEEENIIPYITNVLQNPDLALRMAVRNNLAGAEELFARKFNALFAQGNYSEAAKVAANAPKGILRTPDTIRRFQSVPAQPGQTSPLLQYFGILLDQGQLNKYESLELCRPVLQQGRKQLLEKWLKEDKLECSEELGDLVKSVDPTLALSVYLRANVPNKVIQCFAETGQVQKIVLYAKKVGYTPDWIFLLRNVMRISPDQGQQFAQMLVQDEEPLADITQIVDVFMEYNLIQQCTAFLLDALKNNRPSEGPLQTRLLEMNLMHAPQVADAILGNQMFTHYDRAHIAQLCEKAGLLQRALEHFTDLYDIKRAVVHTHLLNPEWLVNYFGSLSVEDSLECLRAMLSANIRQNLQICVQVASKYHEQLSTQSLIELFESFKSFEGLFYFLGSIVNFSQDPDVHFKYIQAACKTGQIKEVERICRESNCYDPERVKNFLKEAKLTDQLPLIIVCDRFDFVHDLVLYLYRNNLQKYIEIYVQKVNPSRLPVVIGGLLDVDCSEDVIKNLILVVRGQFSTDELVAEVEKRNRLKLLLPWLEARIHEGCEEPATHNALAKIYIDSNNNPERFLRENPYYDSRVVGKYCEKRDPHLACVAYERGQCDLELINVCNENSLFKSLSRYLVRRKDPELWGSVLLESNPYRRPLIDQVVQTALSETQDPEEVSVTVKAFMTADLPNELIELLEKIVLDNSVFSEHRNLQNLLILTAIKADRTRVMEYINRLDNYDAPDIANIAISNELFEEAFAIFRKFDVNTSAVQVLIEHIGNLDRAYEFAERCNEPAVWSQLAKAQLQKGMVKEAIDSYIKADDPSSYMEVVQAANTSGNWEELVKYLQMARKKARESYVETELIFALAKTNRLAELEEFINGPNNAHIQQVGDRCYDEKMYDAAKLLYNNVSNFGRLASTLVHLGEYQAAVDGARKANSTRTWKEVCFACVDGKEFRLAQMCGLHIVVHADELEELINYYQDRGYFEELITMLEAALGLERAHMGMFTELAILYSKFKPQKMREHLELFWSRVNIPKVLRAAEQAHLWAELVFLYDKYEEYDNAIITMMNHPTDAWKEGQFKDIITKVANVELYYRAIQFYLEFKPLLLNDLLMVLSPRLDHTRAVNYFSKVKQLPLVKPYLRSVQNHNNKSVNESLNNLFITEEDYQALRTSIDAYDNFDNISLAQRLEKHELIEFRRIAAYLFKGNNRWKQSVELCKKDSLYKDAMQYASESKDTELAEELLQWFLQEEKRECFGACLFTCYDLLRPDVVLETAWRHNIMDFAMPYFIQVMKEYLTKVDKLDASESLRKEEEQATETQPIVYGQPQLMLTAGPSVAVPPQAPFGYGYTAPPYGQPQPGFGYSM
UniProt Q9Y696: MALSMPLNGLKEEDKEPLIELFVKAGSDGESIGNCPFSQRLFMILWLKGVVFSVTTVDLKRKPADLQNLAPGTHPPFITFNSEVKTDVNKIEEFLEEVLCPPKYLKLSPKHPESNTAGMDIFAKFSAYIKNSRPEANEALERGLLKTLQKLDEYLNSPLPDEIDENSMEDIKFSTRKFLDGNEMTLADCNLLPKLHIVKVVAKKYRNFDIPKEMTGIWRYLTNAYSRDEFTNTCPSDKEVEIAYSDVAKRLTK
UniProt O76071: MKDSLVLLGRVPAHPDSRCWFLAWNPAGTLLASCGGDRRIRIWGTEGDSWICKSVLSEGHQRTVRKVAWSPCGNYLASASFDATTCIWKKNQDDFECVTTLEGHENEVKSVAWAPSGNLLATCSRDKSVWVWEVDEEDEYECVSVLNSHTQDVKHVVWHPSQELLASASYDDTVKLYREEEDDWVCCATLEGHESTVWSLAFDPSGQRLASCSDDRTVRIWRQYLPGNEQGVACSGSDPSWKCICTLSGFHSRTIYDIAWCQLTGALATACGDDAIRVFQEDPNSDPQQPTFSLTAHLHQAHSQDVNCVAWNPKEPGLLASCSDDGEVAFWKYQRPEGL
UniProt Q6FI81: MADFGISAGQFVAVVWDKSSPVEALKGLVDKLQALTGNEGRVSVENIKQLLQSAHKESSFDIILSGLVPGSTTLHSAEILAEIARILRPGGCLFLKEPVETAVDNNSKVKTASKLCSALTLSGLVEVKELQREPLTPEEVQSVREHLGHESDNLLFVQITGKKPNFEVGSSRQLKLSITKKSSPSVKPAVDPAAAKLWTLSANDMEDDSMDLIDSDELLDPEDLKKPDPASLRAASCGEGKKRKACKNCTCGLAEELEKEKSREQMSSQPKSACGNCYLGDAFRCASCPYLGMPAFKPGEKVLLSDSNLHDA
UniProt Q9H5X1: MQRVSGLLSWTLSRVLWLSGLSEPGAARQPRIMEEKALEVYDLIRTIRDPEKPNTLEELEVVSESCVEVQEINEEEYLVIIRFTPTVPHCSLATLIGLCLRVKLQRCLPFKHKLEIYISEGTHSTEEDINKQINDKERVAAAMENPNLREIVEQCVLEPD
UniProt Q9UHD1: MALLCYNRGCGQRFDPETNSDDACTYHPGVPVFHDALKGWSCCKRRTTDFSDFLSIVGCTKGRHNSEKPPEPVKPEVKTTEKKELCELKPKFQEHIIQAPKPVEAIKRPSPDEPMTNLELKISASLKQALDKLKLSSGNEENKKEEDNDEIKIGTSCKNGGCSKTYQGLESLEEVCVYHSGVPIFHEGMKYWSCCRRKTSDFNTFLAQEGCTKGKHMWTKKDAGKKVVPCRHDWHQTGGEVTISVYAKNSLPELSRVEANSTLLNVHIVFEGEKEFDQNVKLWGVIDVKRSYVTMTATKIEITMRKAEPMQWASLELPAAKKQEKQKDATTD
UniProt Q9H6Q4: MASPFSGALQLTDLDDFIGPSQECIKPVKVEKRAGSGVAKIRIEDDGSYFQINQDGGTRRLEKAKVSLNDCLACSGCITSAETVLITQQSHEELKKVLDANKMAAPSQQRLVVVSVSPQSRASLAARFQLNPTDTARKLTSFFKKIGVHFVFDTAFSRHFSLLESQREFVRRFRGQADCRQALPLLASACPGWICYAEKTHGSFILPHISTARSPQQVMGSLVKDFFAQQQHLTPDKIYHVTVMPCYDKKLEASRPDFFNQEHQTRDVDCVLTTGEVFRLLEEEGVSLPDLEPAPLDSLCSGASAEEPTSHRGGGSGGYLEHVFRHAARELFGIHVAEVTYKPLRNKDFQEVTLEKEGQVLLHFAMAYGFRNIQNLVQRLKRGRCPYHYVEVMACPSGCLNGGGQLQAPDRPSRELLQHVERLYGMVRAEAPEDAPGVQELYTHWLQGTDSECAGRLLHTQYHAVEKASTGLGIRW
UniProt Q8WWK9: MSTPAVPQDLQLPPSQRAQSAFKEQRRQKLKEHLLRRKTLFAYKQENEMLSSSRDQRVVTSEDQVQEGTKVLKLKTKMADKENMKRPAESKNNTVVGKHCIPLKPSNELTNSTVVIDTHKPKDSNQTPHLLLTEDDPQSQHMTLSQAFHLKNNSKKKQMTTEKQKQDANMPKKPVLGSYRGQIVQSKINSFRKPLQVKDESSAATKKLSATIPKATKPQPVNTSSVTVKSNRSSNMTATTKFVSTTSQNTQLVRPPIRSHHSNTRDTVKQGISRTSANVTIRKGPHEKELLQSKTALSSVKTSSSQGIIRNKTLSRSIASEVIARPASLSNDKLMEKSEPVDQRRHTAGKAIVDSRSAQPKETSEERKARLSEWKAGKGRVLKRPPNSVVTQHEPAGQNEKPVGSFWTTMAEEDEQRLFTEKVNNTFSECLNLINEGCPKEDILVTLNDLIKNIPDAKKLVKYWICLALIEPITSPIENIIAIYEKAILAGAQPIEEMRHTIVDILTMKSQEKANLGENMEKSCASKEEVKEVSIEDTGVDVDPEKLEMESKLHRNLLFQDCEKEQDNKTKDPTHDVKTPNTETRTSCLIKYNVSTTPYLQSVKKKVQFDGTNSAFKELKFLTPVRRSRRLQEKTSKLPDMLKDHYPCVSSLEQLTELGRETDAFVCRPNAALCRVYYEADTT
UniProt Q8N5K1: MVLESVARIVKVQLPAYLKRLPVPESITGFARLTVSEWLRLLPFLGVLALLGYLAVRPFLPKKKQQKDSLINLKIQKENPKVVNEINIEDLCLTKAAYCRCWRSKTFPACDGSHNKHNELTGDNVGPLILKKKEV

The list shows a part of the results.

Compound in this test: CC1Cc2ccccc2N1C(=O)C1CCCN(C1)C(=O)CCl (mixture of isomers) [TRIM25 ligand 11 (diastereomer mixture)]
Kind of test: probe-labelled cysteine peptide fold change vs DMSO (competition) (log2 fold change); higher = less target engagement (more negative = stronger competition). Conditions: THP-1, incubation time: 4 h.
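Further: competitive chemoproteomic profiling in live THP-1 cells with an iodoacetamide desthiobiotin (IA-DTB) probe, comparing probe-labelled peptide intensities in compound-treated cells against DMSO-treated controls.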

Consider “CFL1_P23528_139_LTGIKHELQANCYEEVK (UniProt P23528)”, for which the “probe-labelled cysteine peptide fold change” value is, setting by setting: (10 µM) -0.462; (50 µM) -0.555.
As to “CLEC16A_Q2KHT3_566_LATLELSCLLLK (UniProt Q2KHT3)”, the “probe-labelled cysteine peptide fold change” value runs as follows: (10 µM) -0.0394; (50 µM) 0.129.
In the same order, the values of “CHI3L1_P36222_300_EAGTLAYYEICDFLR (UniProt P36222)” are 0.0418 and 0.202.
Turning to “CLSPN_Q9HAW4_397_ETQIITGSDESCR (UniProt Q9HAW4)”, the “probe-labelled cysteine peptide fold change” value is, setting by setting: (10 µM) -0.133; (50 µM) -0.301.
Regarding “CKAP5_Q14008_637_TEMPCQALVR (UniProt Q14008)”, the “probe-labelled cysteine peptide fold change” value (10 µM) was -0.0126 and the “probe-labelled cysteine peptide fold change” value (50 µM) is -0.234.
Take “CLIP2_Q9UDT6_272_YFQCPPK (UniProt Q9UDT6)”: the “probe-labelled cysteine peptide fold change” value was 0.0138 (10 µM) and -0.0164 (50 µM).
Consider “CHPF_Q8IZ52_243_YCHGGFGVLLSR (UniProt Q8IZ52)”, for which the “probe-labelled cysteine peptide fold change” value is -0.105 (10 µM) and 0.0727 (50 µM).
Turning to “CLTC_Q00610_151_HSSLAGCQIINYR (UniProt Q00610)”, the “probe-labelled cysteine peptide fold change” value was 0.274 (10 µM) and -0.00881 (50 µM).
Regarding “CLTC_Q00610_292_YGYIHLYDLETGTCIYMNR (UniProt Q00610)”, the “probe-labelled cysteine peptide fold change” value by setting is: (10 µM) 0.262; (50 µM) 0.218.
The corresponding values for “CHD1_O14646_1176_LGELVHNGCIK (UniProt O14646)” are -0.0564 and -0.0746.
Regarding “CLCN3_P51790_783_QCLVTHNGR (UniProt P51790)”, the “probe-labelled cysteine peptide fold change” value (10 µM) was -0.132 and the “probe-labelled cysteine peptide fold change” value (50 µM) came out at 0.169.
Regarding “CHD6_Q8TD26_172_SCTDSAAR (UniProt Q8TD26)”, the “probe-labelled cysteine peptide fold change” value reads like this: (10 µM) -0.00541; (50 µM) -0.0208.
As to “CLIC4_Q9Y696_189_FLDGNEMTLADCNLLPK (UniProt Q9Y696)”, the “probe-labelled cysteine peptide fold change” value reads like this: (10 µM) 0.121; (50 µM) -0.00677.
On to “CIAO1_O76071_19+34_CWFLAWNPAGTLLASCGGDR (UniProt O76071)”, for which the “probe-labelled cysteine peptide fold change” value (10 µM) was -0.0946 and the “probe-labelled cysteine peptide fold change” value (50 µM) came to 0.248.
For “CGGBP1_Q9UFW8_43_LFCTSCNVVLNHVR (UniProt Q9UFW8)”, the “probe-labelled cysteine peptide fold change” value turned out to be 0.0229 (10 µM) and 0.128 (50 µM).
The corresponding values for “CLIC1_O00299_223_EEFASTCPDDEEIELAYEQVAK (UniProt O00299)” are 0.0322 and -0.023.
As to “CLTC_Q00610_753_ESNCYDPER (UniProt Q00610)”, the “probe-labelled cysteine peptide fold change” value by setting is: (10 µM) 0.0159; (50 µM) -0.0731.
Turning to “CIAPIN1_Q6FI81_237_AASCGEGK (UniProt Q6FI81)”, the “probe-labelled cysteine peptide fold change” value is, setting by setting: (10 µM) -0.137; (50 µM) -0.228.
Turning to “CIAO2A_Q9H5X1_155_EIVEQCVLEPD (UniProt Q9H5X1)”, the “probe-labelled cysteine peptide fold change” value is -0.218 (10 µM) and 0.0683 (50 µM).
“CHORDC1_Q9UHD1_86_ELCELK (UniProt Q9UHD1)”: the “probe-labelled cysteine peptide fold change” value turned out to be 0.154 (10 µM) and 0.206 (50 µM).
In the same order, the values of “CLIC4_Q9Y696_189_KFLDGNEMTLADCNLLPK (UniProt Q9Y696)” are -0.146 and -0.327.
With “CIAO3_Q9H6Q4_246_IYHVTVMPCYDK (UniProt Q9H6Q4)”, the “probe-labelled cysteine peptide fold change” value reads like this: (10 µM) -0.0935; (50 µM) -0.161.
As to “CKAP2_Q8WWK9_100_HCIPLKPSNELTNSTVVIDTHKPK (UniProt Q8WWK9)”, the “probe-labelled cysteine peptide fold change” value is -0.363 (10 µM) and -0.423 (50 µM).
In the case of “CISD2_Q8N5K1_110_TFPACDGSHNK (UniProt Q8N5K1)”, the “probe-labelled cysteine peptide fold change” value was -0.034 (10 µM) and -0.153 (50 µM).
Take “CLTC_Q00610_436_YESLELCRPVLQQGR (UniProt Q00610)”: the “probe-labelled cysteine peptide fold change” value reads like this: (10 µM) 0.0378; (50 µM) 0.0435.
For the target “CLTCL1_P53675_736_YIQAACK (UniProt P53675)”, the “probe-labelled cysteine peptide fold change” value was 0.038 (10 µM) and 0.0227 (50 µM).
Consider “CHCHD3_Q9NX63_204_CSALATQYMHCVNHAK (UniProt Q9NX63)”, for which the “probe-labelled cysteine peptide fold change” value reads like this: (10 µM) -0.00551; (50 µM) 0.0693.
For the target CFL1_P23528_147_CTLAEK (UniProt P23528), the “probe-labelled cysteine peptide fold change” value runs as follows: (10 µM) -0.143; (50 µM) -0.17.
With “CHORDC1_Q9UHD1_86_ELCELKPK (UniProt Q9UHD1)”, the “probe-labelled cysteine peptide fold change” value is -0.0689 (10 µM) and -0.154 (50 µM).
Turning to “CLIC6_Q96NY7_641_FLDGDELTLADCNLLPK (UniProt Q96NY7)”, the “probe-labelled cysteine peptide fold change” value is -0.145 (10 µM) and 0.02 (50 µM).
On to “CLP1_Q92989_311_GCFYPHAFNVK (UniProt Q92989)”, for which the “probe-labelled cysteine peptide fold change” value reads like this: (10 µM) 0.139; (50 µM) 0.0546.
“CLTC_Q00610_926_GQCDLELINVCNENSLFK (UniProt Q00610)”: the “probe-labelled cysteine peptide fold change” value is -0.0753 (10 µM) and -0.209 (50 µM).
As to “CHERP_Q8IWX8_246_VVVPIYCTSFLAVEEDK (UniProt Q8IWX8)”, the “probe-labelled cysteine peptide fold change” value by setting is: (10 µM) 0.0777; (50 µM) 0.156.
For the target “CHFR_Q96EP1_95_KQTCPLQTGDVIYLVYR (UniProt Q96EP1)”, the “probe-labelled cysteine peptide fold change” value is -0.0245 (10 µM) and -0.0677 (50 µM).
Take “CLSTN1_O94985_261_ISIKPTCTPGWQGWNNR (UniProt O94985)”: the “probe-labelled cysteine peptide fold change” value is, setting by setting: (10 µM) 0.139; (50 µM) 0.163.
With “CKAP5_Q14008_1019+1026_STPTDLILCVPHLYSCLEDR (UniProt Q14008)”, the “probe-labelled cysteine peptide fold change” value is, setting by setting: (10 µM) 0.47; (50 µM) 0.0623.
With “CHM_P24386_444_IISEHFLVEDSYFPENMCSR (UniProt P24386)”, the “probe-labelled cysteine peptide fold change” value is 0.346 (10 µM) and -0.162 (50 µM).
As for “CISD2_Q8N5K1_92_VVNEINIEDLCLTK (UniProt Q8N5K1)”, the “probe-labelled cysteine peptide fold change” value is -0.12 (10 µM) and -0.0153 (50 µM).
For the target “CHD4_Q14839_493_CTCPALK (UniProt Q14839)”, the “probe-labelled cysteine peptide fold change” value (10 µM) worked out at 0.0193 and the “probe-labelled cysteine peptide fold change” value (50 µM) was 0.209.
The corresponding values for “CIAO1_O76071_97_NQDDFECVTTLEGHENEVK (UniProt O76071)” are 0.202 and 0.0175.
